Values from PubChem BioAssay AID504786 (Drosophila RNAi Screening Center, 2011)
The deposit covers about 21,000 reagents; this is a random part of those with a known target gene and a result. 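Primary screen; positive scores mean lost reporter signal, so the sign may be inverted from the usual convention.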 Reagents against one gene are numbered here. Names joined by + are all predicted targets of the reagent.

- Purpose: 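Knock-downs reducing HIF reporter induction by the iron chelator DFO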 (primary screen)
- Cell system: Drosophila S2 cells with a stable HIF luciferase reporter
- Reagents: long dsRNA against Drosophila genes, about 0.2 µg dsRNA per well of a 384-well plate
- Time to read-out: three days of knock-down, then 20 h of DFO before reading
- Treatment: desferrioxamine (DFO) at 100 µM, an iron chelator that mimics hypoxia, for 20 h
- Measurement: 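Firefly luciferase driven by the mouse ldh-a hypoxia-response element, measured after 20 h of 100 µM DFO; z-scores per plate, higher means more signal lost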
- Direction: z-score: higher = stronger loss of HIF reporter signal

target gene | reagent no. | z-score, replicate 1 | z-score, replicate 2 | z-score, replicate 3 | z-score, replicate 4
Asap (ArfGAP with SH3 domain, ankyrin repeat and PH domain) | 1 | -0.3 | -0.4 | – | –
Asap (ArfGAP with SH3 domain, ankyrin repeat and PH domain) | 2 | -0.4 | -0.6 | – | –
Hakai | 1 | -0.5 | -0.5 | – | –
Cyp40 (Cyclophilin 40) | 1 | -0.3 | -0.2 | – | –
CG10208 | 1 | -0.4 | 0.5 | – | –
Odj (Oddjob) | 1 | -0.1 | -0.2 | – | –
CR30029 (pseudo) | 1 | -0.2 | -0.2 | – | –
Cyp9f3 (Cytochrome P450 9f3) | 1 | -0.3 | -0.5 | – | –
dpr17 (defective proboscis extension response 17) | 1 | 0.2 | -0.1 | – | –
dpr17 (defective proboscis extension response 17) | 2 | 1.7 | -0.4 | – | –
dpr17 (defective proboscis extension response 17) | 3 | -0.5 | -0.2 | – | –
Obp47a (Odorant-binding protein 47a) | 1 | -0.1 | -0.3 | – | –
Orc2 (Origin recognition complex subunit 2) | 1 | -0.3 | -0.4 | – | –
CR31958 (pseudo) | 1 | -0.4 | -0.2 | – | –
Hcs (Holocarboxylase synthetase) | 1 | -0.4 | -0.4 | – | –
Hcs (Holocarboxylase synthetase) | 2 | -0.3 | -0.7 | – | –
CG43317 | 1 | -0.4 | -0.5 | – | –
iav (inactive) | 1 | 0 | 0.1 | – | –
up (upheld) | 1 | 0 | 0.2 | – | –
CG10738 | 1 | -0.4 | -0.3 | – | –
CG12698 | 1 | -0.3 | -0.1 | – | –
Larp7 (La related protein 7) | 1 | 0.8 | -0.1 | – | –
Mst85C | 1 | -0.2 | -0.3 | – | –
CG2444 | 1 | -0.3 | -0.8 | – | –
CG9981 | 1 | 0 | -0.7 | – | –
SA2 (Stromalin 2) | 1 | -0.3 | -0.6 | – | –
Cul3 (Cullin 3) | 1 | 0.4 | 0.3 | – | –
Clic (Chloride intracellular channel) | 1 | -0.3 | -0.1 | – | –
norpA (no receptor potential A) | 1 | -0.2 | -0.7 | – | –
CG32109 | 1 | -0.2 | -0.1 | – | –
Agps (Alkylglycerone phosphate synthase) | 1 | 0.2 | 0.5 | – | –
ntc (nutcracker) | 1 | -0.3 | -0.3 | – | –
Ir48a (Ionotropic receptor 48a) | 1 | -0.1 | -0.2 | – | –
Bap60 (Brahma associated protein 60kD) | 1 | 4.4 | 3.8 | – | –
oys (oysgedart) | 1 | 0.5 | 0.8 | – | –
oys (oysgedart) | 2 | -0.3 | -0.4 | – | –
CG30376 | 1 | -0.2 | -0.3 | – | –
yellow-h | 1 | -0.3 | -0.7 | – | –
CG6800 | 1 | -0.3 | -0.2 | – | –
CG1418 | 1 | -0.2 | -0.5 | – | –
CG15345 (retired record) | 1 | -0.3 | -0.6 | 1 | 0
MED19 (Mediator complex subunit 19) | 1 | 1.1 | 1.6 | – | –
bonsai | 1 | 1.2 | 1 | – | –
CG13306 | 1 | -0.3 | -0.3 | – | –
CG31278 | 1 | -0.3 | -0.7 | – | –
Crz (Corazonin) | 1 | -0.4 | -0.3 | – | –
CG33494 | 1 | -0.1 | 0 | – | –
CG5681 | 1 | -0.2 | -0.5 | – | –
CG7601 | 1 | -0.4 | 0 | – | –
Set | 1 | -0.3 | -0.3 | – | –
CG12301 | 1 | 0.2 | 1.4 | – | –
unc80 (uncoordinated 80) | 1 | -0.4 | 0 | – | –
CG9416 | 1 | -0.3 | -0.4 | – | –
l(3)73Ah (lethal (3) 73Ah) | 1 | 0 | -0.1 | – | –
CG14561 | 1 | -0.2 | -0.3 | – | –
CG12299 | 1 | -0.6 | -0.7 | – | –
CG13678 | 1 | -0.1 | -0.4 | – | –
CG8360 | 1 | -0.3 | -0.6 | – | –
Ir47a (Ionotropic receptor 47a) | 1 | -0.3 | -0.5 | – | –
Cam (Calmodulin) | 1 | -0.4 | -0.9 | – | –
Cam (Calmodulin) | 2 | -0.6 | -0.6 | – | –
CG8159 | 1 | -0.3 | -0.2 | – | –
CG4716 | 1 | -0.3 | -0.3 | – | –
CG11307 | 1 | -0.3 | -0.4 | – | –
ppk3 (pickpocket 3) | 1 | -0.2 | -0.5 | – | –
CG14042 + SP555 | 1 | -0.3 | 0 | – | –
CG14042 + SP555 | 2 | -0.3 | -0.7 | – | –
Dysb (Dysbindin) | 1 | 0.9 | 0.1 | – | –
AMPdeam (AMP deaminase) | 1 | -0.5 | -0.5 | – | –
AMPdeam (AMP deaminase) | 2 | -0.2 | -0.1 | – | –
AMPdeam (AMP deaminase) | 3 | -0.3 | -0.3 | – | –
AMPdeam (AMP deaminase) | 4 | 0 | -0.9 | – | –
GramD1B (GRAM domain containing 1B) | 1 | -0.3 | -0.6 | – | –
GramD1B (GRAM domain containing 1B) | 2 | -0.3 | -0.6 | – | –
wntD (wnt inhibitor of Dorsal) | 1 | -0.1 | -0.5 | – | –
Sgs4 (Salivary gland secretion 4) | 1 | -0.4 | -0.3 | – | –
gcm2 | 1 | -0.3 | -0.4 | – | –
CG13920 | 1 | -0.2 | 1.3 | – | –
CG17380 | 1 | -0.5 | -0.4 | – | –
ND-75 (NADH dehydrogenase (ubiquinone) 75 kDa subunit) | 1 | 0 | -0.3 | – | –
Sirt4 (Sirtuin 4) | 1 | -0.3 | -0.3 | – | –
Cubn2 (Cubilin 2) | 1 | -0.2 | -0.1 | – | –
blanks | 1 | -0.5 | -0.6 | – | –

11 entries from above in another layout:
dpr17 (defective proboscis extension response 17) #2 — z-score, replicate 1 = 1.7; z-score, replicate 2 = -0.4
dpr17 (defective proboscis extension response 17) #3 — z-score, replicate 1 = -0.5; z-score, replicate 2 = -0.2
Obp47a (Odorant-binding protein 47a) — z-score, replicate 1 = -0.1; z-score, replicate 2 = -0.3
Orc2 (Origin recognition complex subunit 2) — z-score, replicate 1 = -0.3; z-score, replicate 2 = -0.4
CR31958 (pseudo) — z-score, replicate 1 = -0.4; z-score, replicate 2 = -0.2
Hcs (Holocarboxylase synthetase) #1 — z-score, replicate 1 = -0.4; z-score, replicate 2 = -0.4
Hcs (Holocarboxylase synthetase) #2 — z-score, replicate 1 = -0.3; z-score, replicate 2 = -0.7
CG43317 — z-score, replicate 1 = -0.4; z-score, replicate 2 = -0.5
iav (inactive) — z-score, replicate 1 = 0; z-score, replicate 2 = 0.1
up (upheld) — z-score, replicate 1 = 0; z-score, replicate 2 = 0.2
CG10738 — z-score, replicate 1 = -0.4; z-score, replicate 2 = -0.3
